# Data taken from patent US9309298B2, “Anti-bacterial polypeptides and pathogen specific synthetic antibodies” (priority 2011, dated 2016).
# For at least one compound, name, drawing or mass did not settle the structure. Bridge positions count the residues as written; N and C are the ends. Ends that are not written are not given here. I, II: the chains in the order shown. * marks the point of attachment. StBu = CC(C)(C)S*
# How the values were obtained:
# [1] = test system: S. aureus; assay: Solution inhibition assay, S. aureus; format: cell-based
# Experimental: The advantage of the synbody “DR-RW” over the single peptides can be noticed in the range 10-25 uM.
# [2] = test system: P. aeruginosa; assay: Solution inhibition assay, P. aeruginosa; format: cell-based; details: range 10-25 uM
# [3] = test system: HEK293 cells in co-culture with S. aureus; assay: Co-culture of HEK293 cells with S. aureus, light microscopy; format: cell-based, human; details: 25 uM; HEK293 2.5*10^4 cells/vial, S. aureus 4*10^5 cells; FIG. 4; listed as DR-RW
# [4] = test system: HEK 293 cells in co-culture with Staphylococcus aureus; assay: Co-culture cell viability assay, cellular ATP content (ATPLight luminescence assay); format: cell-based, human; details: FIG. 5; listed as DR-RW
substance,measurement,setting,value
I: DRIFHKMQHKPYKIKKRGSGGGKC(StBu)-NH2 / II: RWRRHKHFKRPHRKHKRGSG (amide I:23-II:C) [Synbody],"Specificity and activity against S. aureus compared to E. coli O111:B4, P. aeruginosa, S. mutans, B. subtilis",[1]; FIG. 1,increased specificity and activity
same,Increase of specific activity over the single peptides,"[1]; S. aureus, range 10-25 uM",more than 80%
same,Increase of specific activity over the single peptides,[2],> 50%
same,Protective effect on human cells in co-culture,[3],Protective effect
same,"Co-culture protective effect, cell viability by cellular ATP content",[4],Protective effect
